{"source": "paper doi:10.1101/2023.11.29.569073", "binders": {"B1": {"name": "cLuc-CBC1 (enzyme, UniProt Q9SSA4 1-411)", "chain": "MKEKAESGGGVGYVRADQIDLKSLDEQLQRHLSKAWTMEKRKSLSDGEDNVNNTRHNQNNFGHRQLVFQRPLLGGGYSNNNNSSKNDIIRSTEVEKSRREWEIDPSKLIIKSVIARGTFGTVHRGIYDGQDVAVKLLDWGEEGHRSDAEIASLRAAFTQEVAVWHKLDHPNVTKFIGAAMGTSEMSIQTENGQMGMPSNVCCVVVEYCPGGALKSFLIKTRRRKLAFKVVIQLSLDLARGLSYLHSQKIVHRDVKTENMLLDKSRTLKIADFGVARLEASNPNDMTGETGTLGYMAPEVLNGSPYNRKCDVYSFGICLWEIYCCDMPYPDLSFSEVTSAVVRQNLRPEIPRCCPSSLANVMKRCWDANPEKRPEMEEVVAMLEAIDTSKGGGMIPPDQQQGCFCFRRHRGP"}}, "target": "T1, CPK28-nLuc (Arabidopsis thaliana) (UniProt Q9FKW4)", "T1 sequence": "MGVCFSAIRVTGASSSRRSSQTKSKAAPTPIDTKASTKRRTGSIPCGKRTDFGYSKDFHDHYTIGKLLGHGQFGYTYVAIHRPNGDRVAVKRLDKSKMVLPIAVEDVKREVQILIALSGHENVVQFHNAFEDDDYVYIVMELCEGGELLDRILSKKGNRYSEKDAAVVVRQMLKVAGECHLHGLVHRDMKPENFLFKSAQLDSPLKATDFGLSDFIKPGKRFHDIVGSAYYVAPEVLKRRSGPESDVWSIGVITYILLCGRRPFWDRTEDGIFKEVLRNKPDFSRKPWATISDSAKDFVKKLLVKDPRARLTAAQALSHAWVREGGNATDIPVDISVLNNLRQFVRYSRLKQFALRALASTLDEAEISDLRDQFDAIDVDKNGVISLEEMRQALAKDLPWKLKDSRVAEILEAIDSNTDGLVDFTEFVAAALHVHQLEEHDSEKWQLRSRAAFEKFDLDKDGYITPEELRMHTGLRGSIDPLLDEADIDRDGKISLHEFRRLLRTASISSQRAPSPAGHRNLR", "experiment": "split reporter", "note": "No constants are given. Whether binding was seen depends on the method and setting. In cells and extracts the contact can be indirect. Some results given as binding are weak or reduced against the parent protein; the word gives no strength. Where a sequence is shown, tags or fusion partners need not be part of it."}
{"binder": "B1", "values": [{"measurement": "binding", "value": "binds"}]}
